Reference: the supplement of paper PMC9938546
Structures can show the parent of a compound that is named as a salt. This is one part of the list. Part of the spread comes from offsets between plates or batches.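 HCT116-GFP is a human colorectal cancer cell line that carries a KRAS mutation, is microsatellite-unstable and always makes green fluorescent protein; the immune cells came from healthy donors. Live-cell imaging of the green signal stood in for cancer cell survival, and activated immune cells alone cut survival to about half.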

test system: HCT116-GFP; experiment: HCT116-GFP viability (GFP intensity) relative to untreated HCT116-GFP monoculture control, co-culture with activated PBMCs; higher = less cancer cell killing; settings: culture: co-culture with anti-CD3/IL2 activated PBMCs 1:1; 10 µM; 72 h

Compared with CCCCOC(=O)c1ccc(O)cc1 [Butylparaben], CCCCOc1ccc(CC(=O)NO)cc1 [Bufexamac] is lower in HCT116-GFP viability: 65.6% for the first, 40.7% for the second.

Compared with N=C(N)N1CCc2ccccc2C1 [Debrisoquin sulfate], C=CCc1ccccc1OCC(O)CNC(C)C (stereo unspecified) [Alprenolol hydrochloride] is higher in HCT116-GFP viability: 35.4% for the first, 37.5% for the second.

First: CC(=O)/N=c1/sc(S(N)(=O)=O)nn1C [Methazolamide]
Second: Nc1ccc(S(N)(=O)=O)cc1 [Sulfanilamide]
The HCT116-GFP viability of the first is higher: 65.8% for the first, 64.2% for the second.

First: O=C(O)Cc1cc(I)c(Oc2ccc(O)c(I)c2)c(I)c1 [Tiratricol, 3,3',5-triiodothyroacetic acid]
Second: CC(CCc1ccc(O)cc1)NCCc1ccc(O)c(O)c1 (stereo unspecified) [Dobutamine hydrochloride]
The HCT116-GFP viability of the first is lower: 41.9% for the first, 71.5% for the second.

Going from COCCCOc1ccnc(C[S+]([O-])c2nc3ccccc3[nH]2)c1C (stereo unspecified) [Rabeprazole Sodium salt] to CNCC[C@@H](Oc1ccccc1C)c1ccccc1 [Tomoxetine hydrochloride], the HCT116-GFP viability rises from 56.1% to 57.7%.

Compared with O=C(CCCCC(=O)Nc1c(I)cc(I)c(C(=O)O)c1I)Nc1c(I)cc(I)c(C(=O)O)c1I [Iodipamide], O=C(O)c1cc(=O)c2c(OCC(O)COc3cccc4oc(C(=O)O)cc(=O)c34)cccc2o1 [Cromolyn disodium salt] is lower in HCT116-GFP viability: 76.9% for the first, 67% for the second.

Going from Cc1c(F)c(N2CCNC(C)C2)cc2c1c(=O)c(C(=O)O)cn2C1CC1 (stereo unspecified) [Grepafloxacin] to Cc1c(O)cccc1C(=O)N[C@@H](CSc1ccccc1)[C@H](O)CN1C[C@H]2CCCC[C@H]2C[C@H]1C(=O)NC(C)(C)C [Nelfinavir mesylate], the HCT116-GFP viability falls from 57% to 40.7%.

First: CC(=O)OCC(=O)[C@@]12OC3(CCCC3)O[C@@H]1C[C@H]1[C@@H]3CCC4=CC(=O)C=C[C@]4(C)[C@@]3(F)[C@@H](O)C[C@@]12C [Amcinonide]
Second: CC[C@]12CCCN3CCc4c(n(c5ccccc45)[C@@](O)(C(=O)OC)C1)[C@@H]32 [Vincamine]
The HCT116-GFP viability of the first is lower: 58.2% for the first, 64.3% for the second.

First: N=C(N=C(N)N)N1CCOCC1 [Moroxidine hydrochloride]
Second: CCN(CC)C(=O)N1CCN(C)CC1 [Diethylcarbamazine citrate]
The HCT116-GFP viability of the first is lower: 33% for the first, 43.7% for the second.

Going from CCCC(=O)Nc1ccc(OCC(O)CNC(C)C)c(C(C)=O)c1 (stereo unspecified) [Acebutolol hydrochloride] to CC(=O)Nc1ccc(OCC(O)CNC(C)C)cc1 (stereo unspecified) [Practolol], the HCT116-GFP viability rises from 48.5% to 53.6%.

Going from CN1[C@@H]2CC[C@H]1C[C@@H](OC(c1ccccc1)c1ccccc1)C2 [Benztropine mesylate] to CN(C)CCC(c1ccccc1)c1ccccn1 (stereo unspecified) [Pheniramine maleate], the HCT116-GFP viability rises from 42.5% to 44.8%.

Going from O=C(Nc1ccccc1)OCC(CN1CCCCC1)OC(=O)Nc1ccccc1 (stereo unspecified) [Diperodon hydrochloride] to CCCC(C(=O)OCCN(CC)CC)(c1ccccc1)c1ccccc1 [Proadifen hydrochloride], the HCT116-GFP viability falls from 69.9% to 64.9%.

Going from Cc1ccc(O)c([C@H](CCN(C(C)C)C(C)C)c2ccccc2)c1 [Tolterodine tartrate] to CCN(CCCc1ccccc1)CCCc1ccccc1 [Alverine citrate salt], the HCT116-GFP viability rises from 9.27% to 39.7%.

Compared with CC(=O)OC(C)C[N+](C)(C)C (stereo unspecified) [Methacholine chloride], CCC(C)(CN(C)C)OC(=O)c1ccccc1 (stereo unspecified) [Amyleine hydrochloride] is lower in HCT116-GFP viability: 71.8% for the first, 58.7% for the second.

First: NC[C@H]1CC[C@H](C(=O)O)CC1 [Tranexamic acid]
Second: COc1cc(N)c(Cl)cc1C(=O)NC1CCN(Cc2ccccc2)CC1 [Clebopride maleate]
The HCT116-GFP viability of the first is lower: 35.5% for the first, 58.6% for the second.

First: CCSc1ccc2c(c1)N(CCCN1CCN(C)CC1)c1ccccc1S2 [Thiethylperazine dimalate]
Second: CNCC[C@@H](Oc1cccc2ccccc12)c1cccs1 [(R)-Duloxetine hydrochloride]
The HCT116-GFP viability of the first is lower: 17.6% for the first, 57% for the second.

First: O=P(O)(O)C(O)(Cc1cccnc1)P(=O)(O)O [Risedronic acid monohydrate]
Second: NC(=O)c1cccnc1 [Nicotinamide]
The HCT116-GFP viability of the first is lower: 12.6% for the first, 56.2% for the second.

Compared with C=CC[N@@+]12CC[C@@]34c5ccccc5N5/C=C6/[C@H]7C[C@H]8[C@@]9(CC[N@@+]8(CC=C)C/C7=C/CO)c7ccccc7N(/C=C(/[C@@H](C[C@@H]31)/C(=C\CO)C2)[C@H]54)[C@@H]69 [Alcuronium chloride], Clc1ccccc1C(c1ccccc1)(c1ccccc1)n1ccnc1 [Clotrimazole] is lower in HCT116-GFP viability: 38.5% for the first, 24.6% for the second.

First: Clc1ccc(COC(Cn2ccnc2)c2ccc(Cl)cc2Cl)cc1 (stereo unspecified) [Econazole nitrate]
Second: Nc1nc(N)nc(-c2cc(Cl)ccc2Cl)n1 [Irsogladine maleate]
The HCT116-GFP viability of the first is lower: 25.7% for the first, 77.1% for the second.

Compared with CNC1(C)C2CCC(C2)C1(C)C (stereo unspecified) [Mecamylamine hydrochloride], C=CCN1CCCC1CNC(=O)c1cc2nn[nH]c2cc1OC (stereo unspecified) [Alizapride hydrochloride] is higher in HCT116-GFP viability: 43.3% for the first, 44.3% for the second.

Going from C=C(NC(=O)C(=C)NC(=O)c1csc(C2=N[C@@H]3c4csc(n4)[C@H]4NC(=O)c5csc(n5)[C@H]([C@](C)(O)[C@@H](C)O)NC(=O)[C@H]5CSC(=N5)/C(=C/C)NC(=O)[C@H]([C@@H](C)O)NC(=O)c5csc(n5)[C@]3(CC2)NC(=O)[C@H](C)NC(=O)C(=C)NC(=O)[C@H](C)NC(=O)[C@H]([C@@H](C)CC)N[C@@H]2C=Cc3c([C@H](C)O)cc(nc3[C@H]2O)C(=O)O[C@@H]4C)n1)C(N)=O [Thiostrepton] to CC1=C(C(=O)O)N2C(=O)[C@@H](NC(=O)[C@H](N)c3ccc(O)cc3)[C@H]2SC1 [Cefadroxil], the HCT116-GFP viability rises from 2.5% to 59%.

First: CC(=C(CCO)SSCC1CCCO1)N(C=O)Cc1cnc(C)nc1N (stereo in doubt) [Fursultiamine Hydrochloride]
Second: Cn1c(=O)c2c(ncn2CC(O)CO)n(C)c1=O (stereo unspecified) [Diprophylline]
The HCT116-GFP viability of the first is higher: 56.4% for the first, 16.5% for the second.

Going from CC(C)(Oc1ccc(C2CC2(Cl)Cl)cc1)C(=O)O (stereo unspecified) [Ciprofibrate] to CCC(C)(C)c1ccc(CC(C)CN2C[C@@H](C)O[C@@H](C)C2)cc1 (stereo partly specified) [Amorolfine hydrochloride], the HCT116-GFP viability rises from 28% to 53%.
